Measured values published in patent US7429660B2, “ATM inhibitors” (Kudos Pharmaceuticals Limited, priority 2003, dated 2008).
Some of these results come from one statement about several compounds together.

Amino acid sequences for entries named in this document (tags omitted). A change or cut given only in a name is not applied to a line headed by its entry.
UniProt Q13315: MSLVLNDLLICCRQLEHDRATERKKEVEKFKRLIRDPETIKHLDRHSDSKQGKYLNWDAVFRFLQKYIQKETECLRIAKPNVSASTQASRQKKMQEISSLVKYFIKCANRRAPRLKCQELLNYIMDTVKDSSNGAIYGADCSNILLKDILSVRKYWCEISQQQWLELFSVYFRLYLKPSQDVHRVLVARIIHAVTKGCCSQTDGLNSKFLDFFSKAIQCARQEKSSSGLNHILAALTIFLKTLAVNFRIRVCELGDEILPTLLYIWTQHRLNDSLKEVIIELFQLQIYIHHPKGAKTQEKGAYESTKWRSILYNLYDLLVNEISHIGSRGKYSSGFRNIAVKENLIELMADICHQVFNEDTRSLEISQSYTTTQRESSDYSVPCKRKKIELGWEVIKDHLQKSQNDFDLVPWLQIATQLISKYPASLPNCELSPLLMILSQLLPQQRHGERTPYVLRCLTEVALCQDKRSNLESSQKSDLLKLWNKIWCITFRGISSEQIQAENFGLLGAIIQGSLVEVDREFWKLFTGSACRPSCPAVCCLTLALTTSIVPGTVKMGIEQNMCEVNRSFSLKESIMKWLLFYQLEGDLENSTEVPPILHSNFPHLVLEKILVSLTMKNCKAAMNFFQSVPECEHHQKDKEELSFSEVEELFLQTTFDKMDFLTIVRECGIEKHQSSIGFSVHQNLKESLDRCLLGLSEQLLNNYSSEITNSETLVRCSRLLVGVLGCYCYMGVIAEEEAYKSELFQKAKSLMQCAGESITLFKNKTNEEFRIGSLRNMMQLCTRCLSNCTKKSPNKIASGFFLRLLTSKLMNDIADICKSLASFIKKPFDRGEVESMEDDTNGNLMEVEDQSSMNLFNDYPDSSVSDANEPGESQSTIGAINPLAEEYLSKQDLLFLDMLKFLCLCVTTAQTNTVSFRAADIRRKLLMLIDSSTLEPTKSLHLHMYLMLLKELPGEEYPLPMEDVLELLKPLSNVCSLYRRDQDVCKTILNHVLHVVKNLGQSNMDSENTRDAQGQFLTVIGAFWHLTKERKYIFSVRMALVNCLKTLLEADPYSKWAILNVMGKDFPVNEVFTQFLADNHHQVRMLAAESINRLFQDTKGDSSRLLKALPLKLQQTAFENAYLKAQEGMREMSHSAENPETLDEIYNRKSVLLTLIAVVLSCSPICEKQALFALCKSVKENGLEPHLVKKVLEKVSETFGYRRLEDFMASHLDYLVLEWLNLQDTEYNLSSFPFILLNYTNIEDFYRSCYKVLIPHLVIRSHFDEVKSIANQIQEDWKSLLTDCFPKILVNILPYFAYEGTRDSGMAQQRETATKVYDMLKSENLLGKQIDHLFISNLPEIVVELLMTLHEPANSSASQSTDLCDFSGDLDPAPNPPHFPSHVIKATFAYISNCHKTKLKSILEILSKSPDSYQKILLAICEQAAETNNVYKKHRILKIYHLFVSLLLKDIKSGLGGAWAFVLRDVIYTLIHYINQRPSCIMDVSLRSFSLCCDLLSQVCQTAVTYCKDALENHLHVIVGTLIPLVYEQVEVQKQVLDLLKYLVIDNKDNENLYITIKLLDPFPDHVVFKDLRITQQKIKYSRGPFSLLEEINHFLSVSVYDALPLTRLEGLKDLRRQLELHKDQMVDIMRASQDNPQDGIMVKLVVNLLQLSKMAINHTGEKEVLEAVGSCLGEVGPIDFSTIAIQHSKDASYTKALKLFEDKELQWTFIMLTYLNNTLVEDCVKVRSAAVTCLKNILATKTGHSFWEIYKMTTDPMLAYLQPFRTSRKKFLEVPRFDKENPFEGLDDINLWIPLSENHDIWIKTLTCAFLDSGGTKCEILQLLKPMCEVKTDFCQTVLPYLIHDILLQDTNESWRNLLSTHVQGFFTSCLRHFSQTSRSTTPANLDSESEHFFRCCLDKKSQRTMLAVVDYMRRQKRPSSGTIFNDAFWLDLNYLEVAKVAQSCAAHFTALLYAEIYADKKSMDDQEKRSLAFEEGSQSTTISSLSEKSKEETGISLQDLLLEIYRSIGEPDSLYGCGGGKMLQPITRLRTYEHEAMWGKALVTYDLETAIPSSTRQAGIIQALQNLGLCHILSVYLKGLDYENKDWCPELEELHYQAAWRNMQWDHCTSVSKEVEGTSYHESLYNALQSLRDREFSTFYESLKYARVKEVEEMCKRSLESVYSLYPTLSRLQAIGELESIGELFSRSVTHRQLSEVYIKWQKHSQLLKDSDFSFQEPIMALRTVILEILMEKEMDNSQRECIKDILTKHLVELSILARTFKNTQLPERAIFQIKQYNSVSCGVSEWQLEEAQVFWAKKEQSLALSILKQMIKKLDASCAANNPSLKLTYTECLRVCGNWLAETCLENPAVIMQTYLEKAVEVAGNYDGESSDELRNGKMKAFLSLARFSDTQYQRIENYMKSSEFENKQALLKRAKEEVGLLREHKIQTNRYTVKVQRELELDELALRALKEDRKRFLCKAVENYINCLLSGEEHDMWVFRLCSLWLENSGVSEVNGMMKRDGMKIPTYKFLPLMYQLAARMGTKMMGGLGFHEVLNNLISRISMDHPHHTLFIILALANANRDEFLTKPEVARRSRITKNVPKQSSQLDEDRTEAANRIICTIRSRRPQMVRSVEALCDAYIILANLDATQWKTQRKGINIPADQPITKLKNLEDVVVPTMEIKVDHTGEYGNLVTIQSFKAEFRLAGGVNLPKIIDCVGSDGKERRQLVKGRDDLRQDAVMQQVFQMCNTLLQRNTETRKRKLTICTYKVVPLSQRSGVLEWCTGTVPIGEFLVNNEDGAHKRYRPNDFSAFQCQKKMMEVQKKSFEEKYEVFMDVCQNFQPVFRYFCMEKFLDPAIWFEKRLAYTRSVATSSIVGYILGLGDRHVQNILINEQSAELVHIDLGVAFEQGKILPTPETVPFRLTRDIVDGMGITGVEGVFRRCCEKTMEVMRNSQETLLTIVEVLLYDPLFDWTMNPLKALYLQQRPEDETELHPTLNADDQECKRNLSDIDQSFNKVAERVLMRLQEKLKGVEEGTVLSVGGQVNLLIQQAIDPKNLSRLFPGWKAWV

target: T1, ATM protein immunoprecipitated from HeLa cell nuclear extract (Homo sapiens, UniProt Q13315); assay: In vitro ATM inhibition assay (phosphorylation of GSTp53N66 on serine 15, chemiluminescent detection); format: biochemical; settings: list of compounds with IC50 less than 10 μM, in addition to those below 200 nM; read-out: IC50 values (the concentration at which 50% of the enzyme activity is inhibited), ATM inhibition
T1 construct: ATM protein was immunoprecipitated from HeLa cell nuclear extract; endogenous in cells; host or cells: HeLa cell nuclear extract (immunoprecipitated with rabbit polyclonal anti-ATM antiserum)
Experimental: In order to assess the inhibitory action of the compounds against ATM in vitro, the following assay was used to determine IC50 values. ATM protein was immunoprecipitated from HeLa cell nuclear extract using rabbit polyclonal anti-sera raised to the C-terminal ˜500 amino-acid residues of the human ATM protein. […] 10 μl of immunoprecipitated ATM in Buffer C (50 mM Hepes, pH 7.4, 6 mM MgCl2, 150 mM NaCl, 0.1 mM sodium orthovanadate, 4 mM MnCl2, 0.1 mM dithiothreitol, 10% glycerol) was added to 32.5 μl of buffer C containing 1 μg of the ATM substrate GSTp53N66 in a V-bottomed 96 well polypropylene plate. The GSTp53N66 substrate is the amino terminal 66 amino acid residues of human wild type p53 fused to glutathione S-transferase. […] Varying concentrations of inhibitor were then added. […] After 10 minutes of incubation at 37° C., the reactions were initiated by the addition of 5 μl of 500 μM Na-ATP. After 1 hour with shaking at 37° C., 150 μl of phosphate buffered saline (PBS) was added to the reaction and the plate centrifuged at 1500 rpm for 10 minutes. 5 μl of the reaction was then transferred to a 96 well opaque white plate containing 45 μl of PBS to allow the GSTp53N66 substrate to bind to the plate wells. The plate was covered and incubated at room temperature for 1 hour with shaking before discarding the contents. The plate wells were washed twice by the addition of PBS prior to the addition of 3% (w/v) bovine serum albumin (BSA) in PBS. The plate was incubated at room temperature for 1 hour with shaking before discarding the contents and washing twice with PBS. To the wells, 50 μl of a 1:10,000 dilution of primary phosphoserine-15 antibody (Cell Signaling Technology, #9284L) in 3% BSA/PBS was added to detect the phosphorylation event on the serine 15 residue of p53 elicited by the ATM kinase. […] The wells were then washed four times with PBS before the addition of chemiluminescence reagent (NEN Renaissance, NEL105). The plate was then shaken briefly, covered with a transparent plate seal and transferred to a TopCount NXT for chemiluminescent counting. Counts per second, following a one second counting time, were recorded for each reaction.
The enzyme activity for each compound is then calculated using the following equation:
[formula] Results In vitro ATM assays
Compounds were assayed for ATM inhibition activity using the method described above. […] These are determined over a range of different concentrations, normally from 100 μM down to 0.1 nM. Such IC50 values are used as comparative values to identify increased compound potencies.

IC50, < 10 µM:
COC(=O)C(Cc1c[nH]c2ccccc12)NC(=O)COc1ccc2c(c1)Sc1cccc(-c3cc(=O)cc(N4CCOCC4)o3)c1S2 (centres unmarked) [Compound 423]
CN(CCc1ccccn1)C(=O)COc1ccc2c(c1)Sc1cccc(-c3cc(=O)cc(N4CCOCC4)o3)c1S2 [Compound 425]
O=C(COc1ccc2c(c1)Sc1cccc(-c3cc(=O)cc(N4CCOCC4)o3)c1S2)N1CCN(CCOCCO)CC1 [Compound 428]
CC(=O)N1CCN(C(=O)COc2ccc3c(c2)Sc2cccc(-c4cc(=O)cc(N5CCOCC5)o4)c2S3)CC1 [Compound 429]
Cc1ccccc1N1CCN(C(=O)COc2ccc3c(c2)Sc2cccc(-c4cc(=O)cc(N5CCOCC5)o4)c2S3)CC1 [Compound 431]
O=C(COc1ccc2c(c1)Sc1cccc(-c3cc(=O)cc(N4CCOCC4)o3)c1S2)N1CCN(c2ccc(F)cc2)CC1 [Compound 432]
O=C(COc1ccc2c(c1)Sc1cccc(-c3cc(=O)cc(N4CCOCC4)o3)c1S2)N1CCCNCC1 [Compound 443]
CCN(CC)C(=O)COc1ccc2c(c1)Sc1cccc(-c3cc(=O)cc(N4CCOCC4)o3)c1S2 [Compound 447]
CN(C)C(=O)COc1ccc2c(c1)Sc1cccc(-c3cc(=O)cc(N4CCOCC4)o3)c1S2 [Compound 448]
O=C(COc1ccc2c(c1)Sc1cccc(-c3cc(=O)cc(N4CCOCC4)o3)c1S2)N1CCN(c2ncccn2)CC1 [Compound 449]
O=c1cc(-c2cccc3c2Sc2ccc(S(=O)(=O)N4CCOCC4)cc2C3)oc(N2CCOCC2)c1 [Compound 452]
CN1CCCC1CCNS(=O)(=O)c1ccc2c(c1)Cc1cccc(-c3cc(=O)cc(N4CCOCC4)o3)c1S2 (centres unmarked) [Compound 453]
O=c1cc(-c2cccc3c2Sc2ccc(S(=O)(=O)NCc4ccco4)cc2C3)oc(N2CCOCC2)c1 [Compound 460]
COCCNS(=O)(=O)c1ccc2c(c1)Cc1cccc(-c3cc(=O)cc(N4CCOCC4)o3)c1S2 [Compound 461]
O=c1cc(-c2cccc3c2Sc2ccc(S(=O)(=O)NCCCN4CCOCC4)cc2C3)oc(N2CCOCC2)c1 [Compound 463]
N#CCNS(=O)(=O)c1ccc2c(c1)Cc1cccc(-c3cc(=O)cc(N4CCOCC4)o3)c1S2 [Compound 464]
O=c1cc(-c2cccc3c2Sc2ccc(S(=O)(=O)N4CCSCC4)cc2C3)oc(N2CCOCC2)c1 [Compound 470]
O=c1cc(-c2cccc3c2Sc2ccc(S(=O)(=O)NCCN4CCCCC4)cc2C3)oc(N2CCOCC2)c1 [Compound 477]
O=c1cc(-c2cccc3c2Sc2ccc(S(=O)(=O)N4CCN(CCO)CC4)cc2C3)oc(N2CCOCC2)c1 [Compound 481]
O=c1cc(-c2cccc3c2Sc2ccc(S(=O)(=O)NCc4ccncc4)cc2C3)oc(N2CCOCC2)c1 [Compound 483]
O=C1NCCN1CCNS(=O)(=O)c1ccc2c(c1)Cc1cccc(-c3cc(=O)cc(N4CCOCC4)o3)c1S2 [Compound 486]
O=c1cc(-c2cccc3c2Sc2ccc(S(=O)(=O)N4CCNCC4)cc2C3)oc(N2CCOCC2)c1 [Compound 487]
CC(C)N1CCN(S(=O)(=O)c2ccc3c(c2)Cc2cccc(-c4cc(=O)cc(N5CCOCC5)o4)c2S3)CC1 [Compound 492]
CN1CCCC1CCNC(=O)COc1ccc2c(c1)Cc1cccc(-c3cc(=O)cc(N4CCOCC4)o3)c1S2 (centres unmarked) [Compound 495]
O=C(COc1ccc2c(c1)Cc1cccc(-c3cc(=O)cc(N4CCOCC4)o3)c1S2)NCCc1ccccn1 [Compound 498]
COCCNC(=O)COc1ccc2c(c1)Cc1cccc(-c3cc(=O)cc(N4CCOCC4)o3)c1S2 [Compound 502]
O=C(COc1ccc2c(c1)Cc1cccc(-c3cc(=O)cc(N4CCOCC4)o3)c1S2)NCCCN1CCOCC1 [Compound 503]
CN(CCc1ccccn1)C(=O)COc1ccc2c(c1)Cc1cccc(-c3cc(=O)cc(N4CCOCC4)o3)c1S2 [Compound 514]
CN1CCCN(C(=O)COc2ccc3c(c2)Cc2cccc(-c4cc(=O)cc(N5CCOCC5)o4)c2S3)CC1 [Compound 529]
O=C(COc1ccc2c(c1)Cc1cccc(-c3cc(=O)cc(N4CCOCC4)o3)c1S2)N(CCO)CCO [Compound 530]
COCCN(CCOC)C(=O)COc1ccc2c(c1)Cc1cccc(-c3cc(=O)cc(N4CCOCC4)o3)c1S2 [Compound 531]
O=c1cc(-c2cccc3c2Sc2ccc(OCCNCC4CCCO4)cc2C3)oc(N2CCOCC2)c1 (centres unmarked) [Compound 534]
O=c1cc(-c2cccc3c2Sc2ccc(OCCNCCc4ccccn4)cc2C3)oc(N2CCOCC2)c1 [Compound 535]
O=c1cc(-c2cccc3c2Sc2ccc(OCCNC4CCC4)cc2C3)oc(N2CCOCC2)c1 [Compound 536]
O=c1cc(-c2cccc3c2Sc2ccc(OCCNCCCN4CCOCC4)cc2C3)oc(N2CCOCC2)c1 [Compound 538]
